Measurements as given in PubChem BioAssay AID1347076 (National Center for Advancing Translational Sciences (NCATS), 2019).
Out of some 400,000 compounds screened, about 13,000 (3.2%) were called active. Inconclusive means that the source gave no clear call. Such entries were picked first, then a sample of the others. The call rests on the fitted dose curve; in most records, active means well fitted cell-killing curve with a large enough effect; inconclusive means small, poorly fitted or top-dose-only effect, or effect the other way; inactive means flat fitted curve, though single readings scatter. Potencies beside an inconclusive call are fits to weak or partial responses and may not hold up.

assay: qHTS assay for MDR1-selective chemotherapeutics: Primary screen using the drug-selected MDR subline cells KB-V1; details: KB-V1 MDR cells viability, CellTiter-Glo, 72 h; activity change, negative = cytotoxicity: at 46.1 µM (top of the series); further: nearly all actives have a fitted effect of over 60% in size
In short: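 In this primary screen, KB-V1 cells overexpressing P-gp are incubated with library compounds (lowest to highest concentration) for 72 h at 37 degrees C before a luminescent ATP viability read.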
On the % scale 0 is the no-effect control and ±100 the full control effect; potency means the concentration at half of the fitted maximal effect.

Row | Structure (SMILES) | activity change, negative = cytotoxicity | Potency
1 | Cc1ccc(OCC(=O)Nc2ccncc2)cc1C | inactive: -18.4% | 
2 | Cc1cccnc1NC(=O)c1c(O)c2cccc3c2n(c1=O)CCC3 |  | inconclusive: 0.0731 µM [cytotoxic, full curve, poor fit]
3 | O=C(Nc1cccc2ccccc12)OCc1ccccc1 | inactive: 9.66% | 
4 | C=CCNC(=O)C1CC1(c1ccccc1)c1ccccc1 (configuration not stated) |  | active: 18.4 µM
5 | Cc1cc(Oc2ccccc2)nc(SCC(=O)Nc2ccc(Cl)c(Cl)c2)n1 |  | inconclusive: 25.9 µM [cytotoxic, single point]
6 | O=C(COC(=O)C12CC3CC(CC(Cl)(C3)C1)C2)Nc1ccc2[nH]c(=O)[nH]c2c1 | inactive: 18.9% | 
7 | CCC1CN(C(=O)N2CCC(C(=O)NCc3cccc(OC)c3OC)CC2)c2cc(C)ccc2O1 (configuration not stated) |  | inconclusive: 4.61 µM [cytotoxic, full curve, poor fit]
8 | CCC(C)(C)NC(=O)C(c1ccccc1Cl)N(C(=O)CCC(=O)Nc1cc(C)on1)c1ccc(NC(C)=O)cc1 (configuration not stated) |  | inconclusive: 18.4 µM [rising, single point]
9 | CCC1=Nc2cc(C(=O)NC3CCC(C)CC3)ccc2Sc2ccc(C)cc21 (configuration not stated) |  | active: 4.11 µM
10 | CC1(C(=O)NCc2ccccc2Br)CCN1Cc1csc2ccccc12 (configuration not stated) |  | inconclusive: 20.6 µM [cytotoxic, single point]
11 | CCOc1ccc(OCC)c(Nc2ccc3cc(S(=O)(=O)N4CCCC4)ccc3n2)c1 | inactive: 0% | 
12 | CCN1CCN(CCNC(=O)c2ccc3c(c2)N(Cc2cccc(Cl)c2)C(=O)c2ccccc2S3=O)CC1 (configuration not stated) | inactive: -6.17% | 
13 | COC(=O)c1ccc(CN2C(=O)NC3(CCC(C)CC3)C2=O)cc1 (configuration not stated) |  | inconclusive: 29.1 µM [cytotoxic, single point]
14 | Cc1ccc(-c2c(CC(=O)O)c(C)nc3sc4c(c23)CCCC4)cc1 | inactive: 5.43% | 
15 | CCOc1cc(C2CC(=O)NC3=C2C(=O)C(C(=O)OC)C(C)C3)cc(Cl)c1O (configuration not stated) | inactive: -15.8% | 
16 | CCOC(=O)c1[nH]c(CN2CCN(c3ccc(OC)cc3)CC2)c(C(=O)OCC)c1C |  | inconclusive: 10.3 µM [cytotoxic, partial curve]
17 | Cc1cc(C(=O)OC(C)C(=O)Nc2cccc(Cl)c2)on1 (configuration not stated) |  | inconclusive: 29.1 µM [rising, single point]
18 | O=C(NCc1ccc(F)cc1)c1cc(C2CCCCN2C(=O)c2ccccc2)on1 (configuration not stated) | inactive: 0.052% | 
19 | COC(=O)CCC(=O)Nc1ccc(OC)cc1 |  | inconclusive: 18.4 µM [rising, partial curve, poor fit]
20 | Clc1ccc(OCCOCCNCc2ccccc2)cc1Cl | inactive: 9.9% | 
21 | CC1CCN(S(=O)(=O)c2cccc(C(=O)Nc3nccs3)c2)CC1 |  | inconclusive: 5.17 µM [cytotoxic, partial curve, poor fit]
22 | COc1cc(C(F)(F)F)c(C(=O)N(C)Cc2ccc(Cl)c(Cl)c2)cn1 |  | inconclusive: 14.6 µM [cytotoxic, partial curve]
23 | Cc1cc(C(=O)N2CCN(CCc3ccccc3)CC2)no1 |  | inconclusive: 20.6 µM [cytotoxic, single point]
24 | Cc1cc(OCC(=O)Nc2ccncc2)ccc1[N+](=O)[O-] |  | inconclusive: 18.4 µM [cytotoxic, single point]

Row | Structure (SMILES) | activity change, negative = cytotoxicity | Potency
25 | COc1cccc(NC(=O)NNC(=O)CN2C(=O)COc3ccccc32)c1 | inactive: 5.54% | 
26 | O=C(NN=Cc1cc(Cl)ccc1[N+](=O)[O-])c1ccco1 |  | active: 14.6 µM
27 | COc1ccc(NS(=O)(=O)c2ccc3c(c2)N(C(C)=O)CCO3)cc1 | inactive: 0% | 
28 | COc1ccc(-c2nc[nH]c2[N+](=O)[O-])cc1 |  | inconclusive: 29.1 µM [cytotoxic, single point]
29 | COCCN(C(=O)CSc1nc2ccccc2s1)c1c(N)n(Cc2ccccc2)c(=O)[nH]c1=O |  | inconclusive: 20.6 µM [cytotoxic, single point]
30 | C=C1C(=O)[C@]23C[C@H]1CC[C@H]2[C@]1(C)[C@@H](O)CC[C@@](C)(C(=O)O)[C@H]1C[C@@H]3O | inactive: 14.5% | 
31 | CCN(CC)S(=O)(=O)c1cccc(C(=O)NCC2CCCCC2)c1 |  | active: 11.6 µM
32 | C=CCn1c(N2CCCCCC2)nc2c1c(=O)n(C)c(=O)n2C |  | active: 16.4 µM
33 | CCOC(=O)c1c(O)c2ccccc2n(C)c1=O |  | inconclusive: 10.3 µM [rising, partial curve]
34 | CCOc1ccc(S(=O)(=O)NCCC(=O)NC(C)CCc2ccccc2)cc1 (configuration not stated) |  | inconclusive: 13 µM [cytotoxic, partial curve, poor fit]
35 | CC(CN(C)Cc1ccccc1)OC(=O)c1ccccc1F (configuration not stated) | inactive: 19.9% | 
36 | COc1ccc(NC(=O)CSc2ccc3nc(-c4ccccc4)cn3n2)c(OC)c1 | inactive: -11.7% | 
37 | CC(NC(=O)c1noc2c1CCCC2)c1ccccc1 (configuration not stated) |  | active: 16.4 µM
38 | NC(=O)N/N=C/c1sc(N2CCCCC2)nc1-c1cccs1 |  | inconclusive: 16.4 µM [cytotoxic, partial curve]
39 | CCCCC1=CC2=CC(=O)C(C)(OC(=O)CC)C(=O)C2=CN1CCc1ccc(Br)cc1 (configuration not stated) | inactive: 1.75% | 
40 | COc1ccc(CNC2CCCCC2C)c(OC)c1 (configuration not stated) |  | inconclusive: 8.2 µM [cytotoxic, partial curve, poor fit]
41 | CCOCCn1c(=NC(=O)CSCC(=O)Nc2cc(C)on2)sc2cc(OC)ccc21 |  | inconclusive: 2.31 µM [cytotoxic, partial curve, poor fit]
42 | CCC(c1nnnn1C1CCCC1)N1CCN(c2ccccc2)CC1 (configuration not stated) |  | inconclusive: 16.4 µM [cytotoxic, partial curve]
43 | CC(=O)N(c1ccccc1)C1CC(C)N(C(=O)c2ccccc2)c2ccccc21 (configuration not stated) |  | inconclusive: 11.6 µM [cytotoxic, partial curve, poor fit]
44 | CC(C)c1ccc(N2CC(C)(C)C2=O)cc1 | inactive: 0.651% | 
45 | Cc1cc(NC(=O)CCN2CCN(Cc3ccccc3)CC2)ccc1Br |  | inconclusive: 20.6 µM [cytotoxic, single point]
46 | Cc1c(NC(=O)C(C)OC(=O)c2cc(-c3cccc4ccccc34)nc3ccccc23)c(=O)n(-c2ccccc2)n1C (configuration not stated) |  | active: 9.2 µM
47 | N#Cc1ccc(NS(=O)(=O)c2ccc3c(c2)CCC(=O)N3)cc1 |  | inconclusive: 29.1 µM [rising, partial curve, poor fit]
48 | CNc1nc(C)nc(-n2nc(C)cc2C)n1 | inactive: 0.761% | 

Row | Structure (SMILES) | activity change, negative = cytotoxicity | Potency
49 | CCOCCCn1c(=NC(=O)c2cccs2)c(C#N)cc2c(=O)n3cccc(C)c3nc21 |  | inconclusive: 0.92 µM [cytotoxic, full curve]
50 | CCOC(=O)Nc1cc(NC(=O)OCC)ncn1 | inactive: -5.19% | 
51 | COC(=O)NC(=S)N1CCOCC1 |  | inconclusive: 10.3 µM [rising, partial curve, poor fit]
52 | CCC[C@H]1COCCS(=O)(=O)N1Cc1ccc(Br)cc1 |  | inconclusive: 18.4 µM [cytotoxic, partial curve]
53 | Cc1cccc(NC(=O)c2c(C)cc(C)nc2SCC(=O)c2ccccc2)c1 |  | inconclusive: 18.4 µM [cytotoxic, single point]
54 | Cc1cccc(N2C(N)=NC(N)=NC23CCCCC3)c1 | inactive: 20.1% | 
55 | CCc1nc2ccccc2c(C(=O)Nc2cc(C)ccc2C)c1C |  | inconclusive: 7.31 µM [cytotoxic, partial curve]
56 | COc1ccc(S(=O)(=O)c2cn(C)c3ccc(C)cc3c2=O)cc1 | inactive: -0.321% | 
57 | Cc1nc2ccccc2nc1OCC(=O)Nc1ccc2ccccc2c1 |  | inconclusive: 2.59 µM [cytotoxic, full curve]
58 | O=S(=O)(NNc1cccc(Cl)n1)c1ccc(Cl)cc1 |  | inconclusive: 10.3 µM [rising, partial curve, poor fit]
59 | OCC1CCCC(n2cnc3c(=S)nc[nH]c32)O1 (configuration not stated) |  | inconclusive: 0.0058 µM [rising, full curve]
60 | COc1ccc(N(C(=O)CNC(=O)c2ccco2)C(C(=O)NC2CCCC2)c2ccncc2)cc1 (configuration not stated) |  | inconclusive: 29.1 µM [rising, single point]
61 | COc1ccc2oc(C(=O)CCC(=O)O)c(N)c2c1 | inactive: -24.6% | 
62 | CC(=O)/C(=N\Nc1ccccc1)Sc1nnc(-c2ccccc2)n1-c1ccccc1 |  | inconclusive: 29.1 µM [cytotoxic, partial curve, poor fit]
63 | CCOc1ccccc1N(CC(=O)NCCc1ccc(OC)c(OC)c1)S(=O)(=O)c1ccccc1 | inactive: -25.8% | 
64 | CCc1nc(N)c(C#N)c(-c2ccccc2OC)c1C |  | inconclusive: 16.4 µM [cytotoxic, single point]
65 | O=C(Nc1ccc(S(=O)(=O)N2CCCCC2c2cccnc2)cc1)c1ccc(Br)cc1 (configuration not stated) |  | active: 11.6 µM
66 | CN(CC(=O)Nc1ccc(N2CCOCC2)cc1)C(=O)CCc1ccccc1Cl |  | inconclusive: 29.1 µM [cytotoxic, single point]
67 | COc1ccccc1N1CCN(CC(O)COc2ccc(S(=O)(=O)N3CCOCC3)cc2)CC1 (configuration not stated) |  | inconclusive: 18.4 µM [cytotoxic, single point]
68 | COc1ccc(C(=O)C2CCCN(Cc3cnc(N4CCOCC4)s3)C2)cc1F (configuration not stated) |  | inconclusive: 6.51 µM [cytotoxic, full curve, poor fit]
69 | Cc1cccc(C)c1NC(=S)N(Cc1ccccc1)Cc1cccs1 |  | inconclusive: 16.4 µM [cytotoxic, partial curve]
70 | O=C(Nc1ccccc1)C(=O)Nc1ccc2c(c1)N(C(=O)C1CC1)CCC2 |  | inconclusive: 20.6 µM [cytotoxic, partial curve, poor fit]
71 | Cc1cc(N2CCN(c3nc4ccccc4s3)CC2)n2ncnc2n1 |  | active: 1.03 µM
72 | CCCN(CCC)C(=O)Cn1c(=O)n(-c2ccc(CC)cc2)c(=O)c2ccc(C(=O)NCCc3ccccc3)cc21 |  | inconclusive: 29.1 µM [cytotoxic, single point]

Reprinted from the listing for reference:
Row | Structure (SMILES) | activity change, negative = cytotoxicity | Potency
67 | COc1ccccc1N1CCN(CC(O)COc2ccc(S(=O)(=O)N3CCOCC3)cc2)CC1 (configuration not stated) |  | inconclusive: 18.4 µM [cytotoxic, single point]
68 | COc1ccc(C(=O)C2CCCN(Cc3cnc(N4CCOCC4)s3)C2)cc1F (configuration not stated) |  | inconclusive: 6.51 µM [cytotoxic, full curve, poor fit]
69 | Cc1cccc(C)c1NC(=S)N(Cc1ccccc1)Cc1cccs1 |  | inconclusive: 16.4 µM [cytotoxic, partial curve]
70 | O=C(Nc1ccccc1)C(=O)Nc1ccc2c(c1)N(C(=O)C1CC1)CCC2 |  | inconclusive: 20.6 µM [cytotoxic, partial curve, poor fit]
